# Measurements reported in PubChem BioAssay AID1347423 (Functional Genomics Laboratory (NCATS/FGL), 2020).
# About 210 (0.4%) of roughly 52,000 sequences were called active.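 Rule for the calls: active = gene whose silencing raises cell survival under the drug, median off-target-corrected z-score across its silencing RNAs 2 or more; inactive = the rest.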 This is one part of the list.
# Experiment: Resistance to Poly (ADP-Ribose) Polymerase inhibitor: Gene Identification via Genome-wide siRNA Screen
# Settings: mouse BRCA2 R2336H ES cells, olaparib, CellTiter-Glo viability; hits give high values
# Outline: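 Genome-wide siRNA screen (3 siRNAs/gene, 20 nM) in mouse ES cells carrying hypomorphic BRCA2 R2336H; olaparib 500 nM added 48 h post-transfection, CellTiter-Glo viability 72 h later. Normalized to plate-median negative control; MAD z-scores, gene median, seed-adjusted.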
row,Sequence,z-score
1,GGCAACAGUGCAUUCAAGUTT against Nptx2,inactive: -0.0161
2,CGCUUUCUAUACCAGAAGUTT against Lbx1h,inactive: 1.22
3,GGCUCAAGAAACUUAAGGATT against 4933411G06Rik,inactive: 0.389
4,GGCUCUAAGCUAAAUAAAGTT against Kbtbd4,inactive: 0.458
5,GGAAAGUAGUUGUUUUGAUTT against Rpa1,inactive: -3.32
6,GGAGACAUGGACUCCUAUATT against 4933425L06Rik,inactive: -2.78
7,GGGUUUGAGGCCUUCUAUGTT against Masp2,inactive: -2.13
8,GGAAUAUUGUCUUGAAUGATT against Tnfsf6,inactive: 0.501
9,GGAGUUGCCUCUGAAGACCTT against BC020535,inactive: -0.0385
10,GGAGAUAAAGAGGAACAUUTT against AI504432,inactive: -2.03
11,GGUCAAGGAAAAAACACUUTT against Nfs1,inactive: -1.78
12,GGAAGCAGAAGCUAAAGUGTT against Ubap1,inactive: -0.522
13,GGGAGUAUGGAAAACUGCATT against Bin3,inactive: 0.489
14,GGCUCCAACUGCUUUCAUCTT against 6330408A02Rik,inactive: -0.145
15,GCUGGCUAGAAUCUUACCCTT against 0610008A10Rik,inactive: -0.258
16,GGAGUAGCUGAAUCUGAAGTT against Atp5e,inactive: -2.47
17,GGAUAUCUCGGAAAUAGAGTT against Tjp2,inactive: 0.451
18,GCCAGCGUACUCUUUUUAUTT against Ocln,inactive: 0.932
19,GGGACAUAUCUGAAGCAAGTT against Rps26,inactive: -3.07
20,GGAAAUUCUUUGUGAGUUUTT against 2810406C15Rik,inactive: 0.313
21,GGUUUACAGUAAUUACCAATT against Tex12,inactive: -0.837
22,GGUUGCUCUUCUUAAGGAGTT against Scye1,inactive: -1.32
23,GGAAAAUCUUGACUUCAUCTT against BC018472,inactive: 0.221
24,GGAGAGAGGGAAAAAAGAATT against Sox4,inactive: -0.497
25,GCCAGCCUAAAAAAGAUACTT against Eef1g,inactive: 0.801
26,GGAGAUAGCAAACCUUAAGTT against C130098D09,inactive: -1.78
27,GGGUGAGAGGAAACAGAAATT against 2810012L14Rik,inactive: 1.03
28,CAGGCAAAAUAUCGAACAATT against Pstpip1,inactive: 0.129
29,CGUUAUGCGGUUUUUCCAUTT against Ndufa6,inactive: -0.243

# Another view of some results above.
row | Sequence | z-score
3 | GGCUCAAGAAACUUAAGGATT against 4933411G06Rik | inactive: 0.389
6 | GGAGACAUGGACUCCUAUATT against 4933425L06Rik | inactive: -2.78
